{"source": "the supplement of paper PMC5393889", "note": "Some of the results follow.", "data": [{"tested_on": "Caenorhabditis elegans N2", "assay": "aldicarb interaction hit call (worm growth perturbed in combination with 10 uM aldicarb in both replicates, no effect as single agent) (binary (1 = interacts)); higher = interacts with aldicarb (growth perturbed)", "settings": "first compound 1.5 µM; aldicarb concentration 10 µM; 6 days; 20 °C", "values": [{"smiles": "c1ccc(CNc2ccc(-c3nc4ncccc4o3)cc2)nc1", "note": "[wact-205] + CNC(=O)O/N=C/C(C)(C)SC [aldicarb]", "aldicarb interaction hit call": "inactive: 0"}, {"smiles": "N/C(=N\\OC(=O)c1ccc(Cl)cc1)c1ccc(F)cc1F", "note": "[migrazole-A] + CNC(=O)O/N=C/C(C)(C)SC [aldicarb]", "aldicarb interaction hit call": "inactive: 0"}, {"smiles": "C#CCSc1ncnc2c1cnn2-c1ccccc1", "note": "[wact-352] + CNC(=O)O/N=C/C(C)(C)SC [aldicarb]", "aldicarb interaction hit call": "inactive: 0"}, {"smiles": "Cc1oc(-c2ccc(-c3ccccc3)cc2)nc1CN1CCCCC1CCO", "note": "(stereo unspecified) [wact-279] + CNC(=O)O/N=C/C(C)(C)SC [aldicarb]", "aldicarb interaction hit call": "inactive: 0"}, {"smiles": "Cl.c1ccc(COc2ccc(CNCc3cccs3)cc2)cc1", "note": "[wact-119] + CNC(=O)O/N=C/C(C)(C)SC [aldicarb]", "aldicarb interaction hit call": "inactive: 0"}, {"smiles": "O=[N+]([O-])c1cccc(COc2ccc(F)cc2)c1", "note": "[wact-513] + CNC(=O)O/N=C/C(C)(C)SC [aldicarb]", "aldicarb interaction hit call": "inactive: 0"}, {"smiles": "COc1ccc(S(=O)(=O)N2CCCCCC2)c(C)c1C", "note": "[wact-583] + CNC(=O)O/N=C/C(C)(C)SC [aldicarb]", "aldicarb interaction hit call": "inactive: 0"}, {"smiles": "COc1c(Cl)cnn(-c2cccc(C)c2)c1=O", "note": "[wact-409] + CNC(=O)O/N=C/C(C)(C)SC [aldicarb]", "aldicarb interaction hit call": "inactive: 0"}, {"smiles": "COc1cccc(-c2noc(-c3ccccc3)n2)c1", "note": "[wact-135] + CNC(=O)O/N=C/C(C)(C)SC [aldicarb]", "aldicarb interaction hit call": "inactive: 0"}, {"smiles": "Ic1ccc(OCCSc2ncccn2)cc1", "note": "[wact-16] + CNC(=O)O/N=C/C(C)(C)SC [aldicarb]", "aldicarb interaction hit call": "inactive: 0"}, {"smiles": "COc1ccc(-c2nc3cc(N)ccc3o2)cc1", "note": "[wact-600] + CNC(=O)O/N=C/C(C)(C)SC [aldicarb]", "aldicarb interaction hit call": "inactive: 0"}, {"smiles": "CN(C)Cn1c2ccccc2c2ccccc21", "note": "[wact-36] + CNC(=O)O/N=C/C(C)(C)SC [aldicarb]", "aldicarb interaction hit call": "inactive: 0"}, {"smiles": "Fc1cccc(-c2nc(-c3cccnc3)no2)c1", "note": "[wact-579] + CNC(=O)O/N=C/C(C)(C)SC [aldicarb]", "aldicarb interaction hit call": "inactive: 0"}, {"smiles": "CCc1ccc(-c2csc(-c3ccncc3)n2)cc1", "note": "[wact-64] + CNC(=O)O/N=C/C(C)(C)SC [aldicarb]", "aldicarb interaction hit call": "inactive: 0"}, {"smiles": "Cl.Clc1ccc(-c2ccc(CNC3CC3)o2)cc1", "note": "[wact-194] + CNC(=O)O/N=C/C(C)(C)SC [aldicarb]", "aldicarb interaction hit call": "inactive: 0"}, {"smiles": "O=C(Nc1ccc(-c2noc(CCc3ccccc3)n2)cc1)c1cccs1", "note": "[wact-226] + CNC(=O)O/N=C/C(C)(C)SC [aldicarb]", "aldicarb interaction hit call": "inactive: 0"}, {"smiles": "Fc1cc(Cl)c(-c2nc(-c3ccncc3)no2)cc1F", "note": "[wact-156] + CNC(=O)O/N=C/C(C)(C)SC [aldicarb]", "aldicarb interaction hit call": "active: 1"}, {"smiles": "COc1ccc(-c2cc(-c3ccc(OC)cc3O)n[nH]2)cc1", "note": "[wact-601] + CNC(=O)O/N=C/C(C)(C)SC [aldicarb]", "aldicarb interaction hit call": "inactive: 0"}, {"smiles": "O=C(c1ccc(Br)cc1)N1CCN(c2ccc([N+](=O)[O-])cc2)CC1", "note": "[wact-381] + CNC(=O)O/N=C/C(C)(C)SC [aldicarb]", "aldicarb interaction hit call": "active: 1"}, {"smiles": "O=C(Nc1nc(-c2ccccc2)cs1)c1cccs1", "note": "[wact-590] + CNC(=O)O/N=C/C(C)(C)SC [aldicarb]", "aldicarb interaction hit call": "inactive: 0"}, {"smiles": "Cc1ccccc1-c1noc(-c2cccs2)n1", "note": "[wact-59] + CNC(=O)O/N=C/C(C)(C)SC [aldicarb]", "aldicarb interaction hit call": "inactive: 0"}, {"smiles": "CC1(C)Cc2c(c(N3CCOCC3)nc3sc4c(=O)n(-c5ccccc5)cnc4c23)CO1", "note": "[wact-517] + CNC(=O)O/N=C/C(C)(C)SC [aldicarb]", "aldicarb interaction hit call": "inactive: 0"}, {"smiles": "Fc1ccc(CN2CCCC3(CCN(CCCC(F)(F)F)C3)C2)cc1F", "note": "(stereo unspecified) [wact-338] + CNC(=O)O/N=C/C(C)(C)SC [aldicarb]", "aldicarb interaction hit call": "inactive: 0"}, {"smiles": "O=C(NC(=S)Nc1ccc(F)cc1)C1CC1", "note": "[wact-524] + CNC(=O)O/N=C/C(C)(C)SC [aldicarb]", "aldicarb interaction hit call": "inactive: 0"}, {"smiles": "CN(CC1CCN(CCc2ccc(Cl)cc2)CC1)C(=O)c1cc(F)cc(F)c1", "note": "[wact-232] + CNC(=O)O/N=C/C(C)(C)SC [aldicarb]", "aldicarb interaction hit call": "inactive: 0"}, {"smiles": "Cn1cc(CN2CCCC(C(=O)c3ccc(-c4ccccc4)cc3)C2)cn1", "note": "(stereo unspecified) [wact-249] + CNC(=O)O/N=C/C(C)(C)SC [aldicarb]", "aldicarb interaction hit call": "inactive: 0"}]}]}
